This experiment addresses YTHDF1-4A (NES-deficient mutant) (UniProt Q9BYJ9). In words: co-IP; cells transfected with SFB-YTHDF1 (WT, AFA or 4A) and HA-CRM1; some samples treated with KPT-330 (Crm1 inhibitor, 5 uM, 24 h), TMG plus glucose, or acetyl-5S-GlcNAc (OGT inhibitor, 100 uM, 24 h).

Protein sequences, listed by entry. Tags and fused reporters are not part of them. Lines headed by an entry give the natural chain unless they say otherwise; changes in a name come on top.
UniProt Q9BYJ9: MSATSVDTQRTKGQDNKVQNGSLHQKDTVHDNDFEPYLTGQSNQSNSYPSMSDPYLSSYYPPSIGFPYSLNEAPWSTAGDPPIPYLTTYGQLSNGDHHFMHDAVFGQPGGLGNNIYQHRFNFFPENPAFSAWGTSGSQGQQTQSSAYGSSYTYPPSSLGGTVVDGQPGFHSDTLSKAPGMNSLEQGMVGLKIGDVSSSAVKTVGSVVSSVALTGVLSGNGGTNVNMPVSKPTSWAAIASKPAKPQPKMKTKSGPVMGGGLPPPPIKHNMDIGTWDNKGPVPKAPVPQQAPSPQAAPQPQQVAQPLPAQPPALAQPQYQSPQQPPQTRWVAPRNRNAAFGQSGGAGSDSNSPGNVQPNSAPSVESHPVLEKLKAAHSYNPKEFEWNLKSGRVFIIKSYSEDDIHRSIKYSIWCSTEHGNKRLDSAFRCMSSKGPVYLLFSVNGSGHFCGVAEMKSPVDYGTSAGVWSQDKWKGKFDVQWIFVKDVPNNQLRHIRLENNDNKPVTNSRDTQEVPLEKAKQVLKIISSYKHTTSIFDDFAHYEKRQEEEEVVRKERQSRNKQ
UniProt O14980: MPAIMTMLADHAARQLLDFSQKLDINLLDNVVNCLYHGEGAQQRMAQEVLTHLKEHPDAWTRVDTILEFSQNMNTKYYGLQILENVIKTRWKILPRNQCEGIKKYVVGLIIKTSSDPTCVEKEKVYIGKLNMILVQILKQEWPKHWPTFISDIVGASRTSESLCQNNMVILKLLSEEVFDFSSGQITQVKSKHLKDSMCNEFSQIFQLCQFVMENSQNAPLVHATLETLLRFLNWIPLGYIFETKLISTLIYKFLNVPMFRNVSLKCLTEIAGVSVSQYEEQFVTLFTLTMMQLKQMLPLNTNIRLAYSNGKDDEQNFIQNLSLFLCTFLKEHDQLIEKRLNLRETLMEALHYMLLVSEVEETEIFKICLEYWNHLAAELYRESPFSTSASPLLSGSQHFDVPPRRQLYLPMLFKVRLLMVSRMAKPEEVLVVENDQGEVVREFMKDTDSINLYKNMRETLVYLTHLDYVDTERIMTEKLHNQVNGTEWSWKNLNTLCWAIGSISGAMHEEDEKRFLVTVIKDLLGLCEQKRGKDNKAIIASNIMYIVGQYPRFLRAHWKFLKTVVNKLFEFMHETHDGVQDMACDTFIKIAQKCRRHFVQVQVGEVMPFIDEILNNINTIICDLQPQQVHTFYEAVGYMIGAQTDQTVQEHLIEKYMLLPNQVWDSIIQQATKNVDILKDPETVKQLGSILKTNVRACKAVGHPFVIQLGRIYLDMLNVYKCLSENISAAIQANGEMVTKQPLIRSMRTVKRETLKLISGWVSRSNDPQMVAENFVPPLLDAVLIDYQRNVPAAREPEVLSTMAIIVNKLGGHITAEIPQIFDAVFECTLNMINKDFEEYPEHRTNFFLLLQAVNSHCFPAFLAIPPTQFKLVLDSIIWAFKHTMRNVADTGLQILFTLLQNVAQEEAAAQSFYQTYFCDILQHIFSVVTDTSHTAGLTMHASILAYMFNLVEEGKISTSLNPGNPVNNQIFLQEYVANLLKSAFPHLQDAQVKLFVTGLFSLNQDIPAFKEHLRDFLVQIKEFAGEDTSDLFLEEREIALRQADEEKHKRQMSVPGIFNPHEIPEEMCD

No constants are given. Whether binding was seen depends on the method and setting. In cells and extracts the contact can be indirect. A result given as binding can be weak or reduced; the word gives no strength.

As for “HA-CRM1 (exportin 1) (from UniProt O14980 1-1071)”, the binding entry is “binds”.

(Values after PMC10208891.)
